Measured values: article doi:10.1101/2023.02.19.529116
Results are given in words; binding and its absence hold for the method and conditions named. Sequences can lack the tags named with a protein.

T1: PH-EGFP-Smaug (Drosophila), Q23972
T1 chain: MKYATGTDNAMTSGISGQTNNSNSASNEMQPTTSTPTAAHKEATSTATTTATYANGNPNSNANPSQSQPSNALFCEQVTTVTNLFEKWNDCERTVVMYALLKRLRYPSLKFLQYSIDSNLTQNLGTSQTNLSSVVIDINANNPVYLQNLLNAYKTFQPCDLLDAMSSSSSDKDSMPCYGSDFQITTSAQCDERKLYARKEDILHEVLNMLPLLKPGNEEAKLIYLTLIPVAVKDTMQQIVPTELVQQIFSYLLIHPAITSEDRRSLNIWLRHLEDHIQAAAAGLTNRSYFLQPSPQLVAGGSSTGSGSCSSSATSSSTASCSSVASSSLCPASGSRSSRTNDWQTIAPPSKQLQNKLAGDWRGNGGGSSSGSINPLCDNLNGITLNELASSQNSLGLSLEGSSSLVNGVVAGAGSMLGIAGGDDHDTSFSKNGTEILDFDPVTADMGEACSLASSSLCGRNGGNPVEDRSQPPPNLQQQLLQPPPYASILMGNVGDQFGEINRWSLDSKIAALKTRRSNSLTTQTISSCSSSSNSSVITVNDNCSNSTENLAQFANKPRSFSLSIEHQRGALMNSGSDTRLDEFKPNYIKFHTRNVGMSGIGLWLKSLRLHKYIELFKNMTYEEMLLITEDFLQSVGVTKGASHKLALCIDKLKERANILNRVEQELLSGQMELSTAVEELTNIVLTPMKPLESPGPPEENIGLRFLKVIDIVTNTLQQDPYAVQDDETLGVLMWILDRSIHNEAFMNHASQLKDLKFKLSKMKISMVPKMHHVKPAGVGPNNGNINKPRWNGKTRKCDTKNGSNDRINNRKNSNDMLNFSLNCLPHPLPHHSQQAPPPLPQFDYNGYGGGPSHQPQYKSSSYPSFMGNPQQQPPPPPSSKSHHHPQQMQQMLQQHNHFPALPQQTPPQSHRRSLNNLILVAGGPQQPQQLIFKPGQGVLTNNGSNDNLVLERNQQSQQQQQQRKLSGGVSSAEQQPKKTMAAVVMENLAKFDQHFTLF

B1: Aubergine, O76922 1-866 (protein)
chain: MNLPPNPVIARGRGRGRKPNNVEANRGFAPSLGQKSDPSHSEGNQASGGNGGGGDAQVGPSIEKSSLSAVQMHKSEGDPRGSVRGRRLITDLVYSRPPGMTSKKGVVGTHITVQANYFKVLKRPNWTIYQYRVDFTPDVEATRLRRSFLYEHKGILGGYIFDGTNMFCINQFKAVQDSPYVLELVTKSRAGENIEIKIKAVGSVQSTDAEQFQVLNLILRRAMEGLDLKLVSRYYYDPQAKINLENFRMQLWPGYQTSIRQHENDILLCSEICHKVMRTETLYNILSDAIRDSDDYQSTFKRAVMGMVILTDYNNKTYRIDDVDFQSTPLCKFKTNDGEISYVDYYKKRYNIIIRDLKQPLVMSRPTDKNIRGGNDQAIMIIPELARATGMTDAMRADFRTLRAMSEHTRLNPDRRIERLRMFNKRLKSCKQSVETLKSWNIELDSALVEIPARVLPPEKILFGNQKIFVCDARADWTNEFRTCSMFKNVHINRWYVITPSRNLRETQEFVQMCIRTASSMKMNICNPIYEEIPDDRNGTYSQAIDNAAANDPQIVMVVMRSPNEEKYSCIKKRTCVDRPVPSQVVTLKVIAPRQQKPTGLMSIATKVVIQMNAKLMGAPWQVVIPLHGLMTVGFDVCHSPKNKNKSYGAFVATMDQKESFRYFSTVNEHIKGQELSEQMSVNMACALRSYQEQHRSLPERILFFRDGVGDGQLYQVVNSEVNTLKDRLDEIYKSAGKQEGCRMTFIIVSKRINSRYFTGHRNPVPGTVVDDVITLPERYDFFLVSQAVRIGTVSPTSYNVISDNMGLNADKLQMLSYKMTHMYYNYSGTIRVPAVCHYAHKLAFLVAESINRAPSAGLQNQLYFL
B2: Ago3, Q7PLK0 1-867 (protein)
chain: MSGRGNLLSLFNKNAGNMGKSISSKDHEIDSGLDFNNSESSGERLLSSHNIETDLITTLQHVNISVGRGRARLIDTLKTDDHTSNQFITSESKENITKKTKGPESEAIASENGLFFPDLIYGSKGSSVNIYCNYLKLTTDESKGVFNYEVRFFPPIDSVHLRIKYLNDHKDKLGGTKTFDGNTLYLPILLPNKMTVFISKAEDVELQIRILYKKKEEMRNCTQLYNILFDRVMKVLNYVKFDRKQFDPSRPKIIPLAKLEVWPGYVTAVDEYKGGLMLCCDVSHRILCQKTVLEMLVDLYQQNVEHYQESARKMLVGNIVLTRYNNRTYKINDICFDQNPTCQFEIKTGCTSYVEYYKQYHNINIKDVNQPLIYSIKKSRGIPAERENLQFCLIPELCYLTGLRDEVRSDNKLMREIATFTRVSPNQRQMALNKFYENVSNTPAAQEILNSWGLSLTNNSNKISGRQMDIEQIYFSKISVSAGRSAEFSKHAVTNEMLKVVHLSKWIIIHLRNYRQAATSLLDNMKQACESLGMNISNPTMISLDHDRIDAYIQALRRNITMNTQMVVCICHNRRDDRYAAIKKICCSEIPIPSQVINAKTLQNDLKIRSVVQKIVLQMNCKLGGSLWTVKIPFKNVMICGIDSYHDPSNRGNSVAAFVASINSSYSQWYSKAVVQTKREEIVNGLSASFEIALKMYRKRNGKLPTNIIIYRDGIGDGQLYTCLNYEIPQFEMVCGNRIKISYIVVQKRINTRIFSGSGIHLENPLPGTVVDQHITKSNMYDFFLVSQLVRQGTVTPTHYVVLRDDCNYGPDIIQKLSYKLCFLYYNWAGTVRIPACCMYAHKLAYLIGQSIQRDVAEALSEKLFYL
B3: Me31B, P23128 1-459 (protein)
chain: MMTEKLNSGHTNLTSKGIINDLQIAGNTSDDMGWKSKLKLPPKDNRFKTTDVTDTRGNEFEEFCLKRELLMGIFEKGWERPSPIQEAAIPIALSGKDVLARAKNGTGKTGAYCIPVLEQIDPTKDYIQALVMVPTRELALQTSQICIELAKHLDIRVMVTTGGTILKDDILRIYQKVQLIIATPGRILDLMDKKVADMSHCRILVLDEADKLLSLDFQGMLDHVILKLPKDPQILLFSATFPLTVKNFMEKHLREPYEINLMEELTLKGVTQYYAFVQERQKVHCLNTLFSKLQINQSIIFCNSTQRVELLAKKITELGYCCYYIHAKMAQAHRNRVFHDFRQGLCRNLVCSDLFTRGIDVQAVNVVINFDFPRMAETYLHRIGRSGRFGHLGIAINLITYEDRFDLHRIEKELGTEIKPIPKVIDPALYVANVGASVGDTCNNSDLNNSANEEGNVSK
B4: Tral, Q9VTZ0 1-652 (protein)
chain: MSGGLPELGSKISLISKADIRYEGRLYTVDPQECTIALSSVRSFGTEDRDTQFQIAPQSQIYDYILFRGSDIKDIRVVNNHTLPHHNDPAIMQAQLQNGPPQMPQHFPMPSGMSGPPQQQQVPSQQPPQMPSGGGSGGAGGAGAPGGGGPGYGNGNPFGNLGGPNLANMVGNAGGSLAPGSGAPGSGPFMHIGGNQQQPKPQQQKQPNMLAGASRSTTPISLIVSPTAELTQQQQLHQQQNAGQGGNGRDAGHKRQNHQQQQNQQHQQRGGPSHNNMQQQQQRGGGSGTDFYNQQRDRRDSGRQMDNNYSNNYNNNNNNQRNRGGGNGMQQQQRGGNGGSGGGGGNGGGNNPAWNMHRGNQNSNNMMNMRNRGMGSRGPMRPNQGYRPQSANNQNKPRNKIKFEGDFDFEQANNKFEELRSQLAKLKVAEDGAPKPATNATAATATATNEQVGEKVEGVHTLNGETDKKDDSGNETGAGEHEPEEDDVAVCYDKTKSFFDNISCEAAQDRSKNKKNDWRQERKLNTETFGVSSTRRGSYRGRNQYYNNNGNGGINSGYGGAPGYNRNNYRMGGGGGNFRNRSNNRNNGGGRGGNGMPNITNGNTAAALKAANNAAGHGSNATDSSAPNATTATTKSTSLLPEQTQQVAAVSQ
B5: Belle, Q9VHP0 1-798 (protein)
chain: MSNAINQNGTGLEQQVAGLDLNGGSADYSGPITSKTSTNSVTGGVYVPPHLRGGGGNNNAADAESQGQGQGQGQGFDSRSGNPRQETRDPQQSRGGGGEYRRGGGGGGRGFNRQSGDYGYGSGGGGRRGGGGRFEDNYNGGEFDSRRGGDWNRSGGGGGGGRGFGRGPSYRGGGGGSGSNLNEQTAEDGQAQQQQQPRNDRWQEPERPAGFDGSEGGQSAGGNRSYNNRGERGGGGYNSRWKEGGGSNVDYTKLGARDERLEVELFGVGNTGINFDKYEDIPVEATGQNVPPNITSFDDVQLTEIIRNNVALARYDKPTPVQKHAIPIIINGRDLMACAQTGSGKTAAFLVPILNQMYELGHVPPPQSTRQYSRRKQYPLGLVLAPTRELATQIFEEAKKFAYRSRMRPAVLYGGNNTSEQMRELDRGCHLIVATPGRLEDMITRGKVGLENIRFLVLDEADRMLDMGFEPQIRRIVEQLNMPPTGQRQTLMFSATFPKQIQELASDFLSNYIFLAVGRVGSTSENITQTILWVYEPDKRSYLLDLLSSIRDGPEYTKDSLTLIFVETKKGADSLEEFLYQCNHPVTSIHGDRTQKEREEALRCFRSGDCPILVATAVAARGLDIPHVKHVINFDLPSDVEEYVHRIGRTGRMGNLGVATSFFNEKNRNICSDLLELLIETKQEIPSFMEDMSSDRGHGGAKRAGRGGGGRYGGGFGSRDYRQSSGGGGGGRSGPPPRSGGSGSGGGGGSYRSNGNSYGGNSGGGGYYGGGAGGGSYGGSYGGGSASHSSNAPDWWAQ

Target: T1, PH-EGFP-Smaug (Drosophila), Q23972
Assay: ReLo
Conditions: remark: other sources report otherwise

**Q.** B1 was tested. Which binding did it give?
**A.** Its binding is “no binding”.

**Q.** B2 was tested. Which binding did it give?
**A.** Its binding is “no binding”.

**Q.** B3 was tested. Which binding did it give?
**A.** Its binding is “no binding”.

**Q.** How did the binding turn out when B4 was run?
**A.** Its binding is “no binding”.

**Q.** B5 was tested. Which binding did it give?
**A.** Its binding is “no binding”.
